Laboratory results taken from paper PMC6700525.
These are yes or no findings as the source states them, for the method shown. Binding seen in cells or lysates may run through a third protein. Binding can be weak; no strength is given. Where a sequence is shown, tags or fusion partners need not be part of it.

Target: 3xFLAG:Spc105 (Aspergillus flavus)
Test: co-IP; A. flavus mycelial extracts (PDB, 24 h, 30°C) in IP lysis buffer; anti-Flag antibody on Dynabeads Protein G, 4°C for 12 h; washes in PBST (0.02% Tween); blot with anti-HA antibody

B1: LaeA:HA (protein, UniProt B8N406 1-369)
chain: MFGNGQTGQRLPAMASPPHDSYYSQSLASSRSRNNSDAMDIYAITDRDPPAREPSGYSQWYRNGSPSVNSIHSKSSEKQPFYEENGRMYHAYRKGVYMLPCDEQEQDRLDIFHKLFTVARVSDGLMYAPHPRNGRFLDLGCGTGIWAIDVANKYPDAFVVGVDLAPIQPSNHPKNCEFYAPFDFESPWAMGEDSWDLIHLQMGCGSVMGWPNLYRRIFAHLRPGAWFEQVEIDFEPRCDDRPLEGLAIRQWYQYLKQATQDAMRPINHNSRDTIRDLQEAGFTDIDHQMVGLPLNPWHQDEHERKVARWYNLAVSESIESLSMAPFSRIFNWDLDRIRRISSEVKSEAFNKEIHAYNILHIYQARKPAN
binding: binds
